From article doi:10.1101/2023.06.13.544862
These are yes or no findings as the source states them, for the method shown. Some entries that bind do so weakly or less than the wild type. Sequences can lack the tags named with a protein.

Chains of the proteins cited; added tags and fusions are not shown.
UniProt O75530: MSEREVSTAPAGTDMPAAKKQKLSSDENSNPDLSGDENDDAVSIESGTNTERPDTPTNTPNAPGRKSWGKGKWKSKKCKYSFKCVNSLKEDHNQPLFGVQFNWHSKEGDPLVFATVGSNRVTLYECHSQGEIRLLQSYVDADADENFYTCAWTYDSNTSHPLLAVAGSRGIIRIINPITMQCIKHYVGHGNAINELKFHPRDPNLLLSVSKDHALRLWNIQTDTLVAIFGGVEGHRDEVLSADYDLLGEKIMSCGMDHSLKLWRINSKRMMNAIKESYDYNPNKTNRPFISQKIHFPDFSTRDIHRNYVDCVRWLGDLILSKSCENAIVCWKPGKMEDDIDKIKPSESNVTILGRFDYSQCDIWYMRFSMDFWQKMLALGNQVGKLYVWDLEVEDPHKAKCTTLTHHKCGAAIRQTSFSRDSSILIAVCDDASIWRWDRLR

Legend:
Assay in all cases: pull-down
[1] = biological target: T1, GST-tagged NOP16 1-22 (human) (UniProt Q9Y3C1)
T1 sequence: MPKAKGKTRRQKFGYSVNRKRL

[2] = biological target: T2, GST-tagged NOP16 1-38 (human) (UniProt Q9Y3C1)
T2 sequence: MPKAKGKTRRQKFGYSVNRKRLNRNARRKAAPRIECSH

[3] = biological target: T3, GST-tagged NOP16 23-44 (human) (UniProt Q9Y3C1)
T3 sequence: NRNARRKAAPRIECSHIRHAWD

[4] = biological target: T4, GST-tagged NOP16 39-176 (human) (UniProt Q9Y3C1)
T4 sequence: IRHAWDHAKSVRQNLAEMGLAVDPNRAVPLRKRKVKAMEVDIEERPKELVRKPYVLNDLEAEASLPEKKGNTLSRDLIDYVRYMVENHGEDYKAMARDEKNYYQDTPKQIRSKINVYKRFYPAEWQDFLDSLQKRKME

[5] = biological target: T5, GST-tagged NOP16 67-88 (human) (UniProt Q9Y3C1)
T5 sequence: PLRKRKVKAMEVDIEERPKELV

[6] = biological target: T6, GST-tagged full-length NOP16 (human) (UniProt Q9Y3C1)
T6 sequence: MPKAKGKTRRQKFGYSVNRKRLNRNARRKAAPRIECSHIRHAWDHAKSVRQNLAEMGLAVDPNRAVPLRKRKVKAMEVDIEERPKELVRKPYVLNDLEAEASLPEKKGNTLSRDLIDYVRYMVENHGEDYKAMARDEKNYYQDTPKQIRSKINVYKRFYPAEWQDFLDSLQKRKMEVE

binding [1]: binds
binding [2]: binds
binding [3]: binds
binding [4]: binds
binding [5]: binds
binding [6]: binds
Substance: EED pulled down by GST-tagged NOP16 constructs (from UniProt O75530 1-441)
